According to article PMC10542385:
These are yes or no findings as the source states them, for the method shown. Binding seen in cells or lysates may run through a third protein. A yes stands for co-enrichment or nearness to the bait. Other partners may have been found.

Protein sequences, listed by entry. Tags and fused reporters are not part of them.
UniProt Q9Y5T5: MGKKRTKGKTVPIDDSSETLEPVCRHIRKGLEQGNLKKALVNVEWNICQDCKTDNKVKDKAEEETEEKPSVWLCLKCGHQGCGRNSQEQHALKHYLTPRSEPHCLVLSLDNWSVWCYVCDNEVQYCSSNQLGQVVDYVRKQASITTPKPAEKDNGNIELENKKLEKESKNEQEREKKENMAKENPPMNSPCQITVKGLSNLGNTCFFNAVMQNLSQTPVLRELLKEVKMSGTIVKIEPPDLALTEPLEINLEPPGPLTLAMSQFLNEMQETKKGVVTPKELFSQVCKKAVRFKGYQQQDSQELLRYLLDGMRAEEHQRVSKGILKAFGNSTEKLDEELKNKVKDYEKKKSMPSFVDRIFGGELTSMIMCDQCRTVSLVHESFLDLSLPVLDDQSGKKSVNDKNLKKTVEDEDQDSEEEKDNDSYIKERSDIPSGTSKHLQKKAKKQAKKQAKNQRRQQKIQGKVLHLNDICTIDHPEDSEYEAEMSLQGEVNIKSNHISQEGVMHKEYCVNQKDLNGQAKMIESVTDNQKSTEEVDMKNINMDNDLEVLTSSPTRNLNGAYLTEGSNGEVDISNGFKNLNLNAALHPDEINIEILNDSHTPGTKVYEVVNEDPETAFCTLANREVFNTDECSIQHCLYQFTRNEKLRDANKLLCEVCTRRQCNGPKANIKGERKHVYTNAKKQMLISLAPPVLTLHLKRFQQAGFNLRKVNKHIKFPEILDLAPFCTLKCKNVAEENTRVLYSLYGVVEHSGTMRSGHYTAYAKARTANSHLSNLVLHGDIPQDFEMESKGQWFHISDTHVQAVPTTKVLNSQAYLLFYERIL
UniProt Q14145: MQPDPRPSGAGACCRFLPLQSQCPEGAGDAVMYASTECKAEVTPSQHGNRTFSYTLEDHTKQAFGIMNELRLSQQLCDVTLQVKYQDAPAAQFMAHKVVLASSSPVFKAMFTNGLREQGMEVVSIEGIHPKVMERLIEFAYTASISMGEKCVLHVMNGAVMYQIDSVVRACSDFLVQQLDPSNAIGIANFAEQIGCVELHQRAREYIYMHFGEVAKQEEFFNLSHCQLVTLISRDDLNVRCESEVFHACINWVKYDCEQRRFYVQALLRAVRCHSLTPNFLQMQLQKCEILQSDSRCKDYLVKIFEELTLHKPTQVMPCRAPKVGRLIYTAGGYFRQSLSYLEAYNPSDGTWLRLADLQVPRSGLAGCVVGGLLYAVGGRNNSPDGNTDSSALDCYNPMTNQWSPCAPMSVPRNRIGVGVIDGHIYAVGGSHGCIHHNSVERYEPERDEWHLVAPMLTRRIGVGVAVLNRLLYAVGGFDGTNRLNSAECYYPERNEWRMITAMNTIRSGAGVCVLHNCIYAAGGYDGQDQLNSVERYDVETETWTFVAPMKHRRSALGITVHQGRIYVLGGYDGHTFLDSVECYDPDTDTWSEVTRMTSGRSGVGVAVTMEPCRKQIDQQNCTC

Target: Flag-tagged USP16 (ubiquitin carboxyl-terminal hydrolase 16) (human) (UniProt Q9Y5T5)
Experiment: affinity purification with mass spectrometry; HEK293T cells transfected with Flag-USP16; immunoprecipitation by Flag antibody or IgG with protein A/G beads; silver staining; LC-MS/MS

## KEAP1 (Kelch Like ECH Associated Protein 1), endogenous in HEK293T cells (from UniProt Q14145 1-624)
  binding: binds
